From publication doi:10.1101/2021.08.09.455663
Results are given in words; binding and its absence hold for the method and conditions named. In cells and extracts the contact can be indirect. Some binding calls cover weakened binding; strength is not graded here.

Sequences of proteins named here, by UniProt entry; tags and fusion partners are left off.
UniProt P42224: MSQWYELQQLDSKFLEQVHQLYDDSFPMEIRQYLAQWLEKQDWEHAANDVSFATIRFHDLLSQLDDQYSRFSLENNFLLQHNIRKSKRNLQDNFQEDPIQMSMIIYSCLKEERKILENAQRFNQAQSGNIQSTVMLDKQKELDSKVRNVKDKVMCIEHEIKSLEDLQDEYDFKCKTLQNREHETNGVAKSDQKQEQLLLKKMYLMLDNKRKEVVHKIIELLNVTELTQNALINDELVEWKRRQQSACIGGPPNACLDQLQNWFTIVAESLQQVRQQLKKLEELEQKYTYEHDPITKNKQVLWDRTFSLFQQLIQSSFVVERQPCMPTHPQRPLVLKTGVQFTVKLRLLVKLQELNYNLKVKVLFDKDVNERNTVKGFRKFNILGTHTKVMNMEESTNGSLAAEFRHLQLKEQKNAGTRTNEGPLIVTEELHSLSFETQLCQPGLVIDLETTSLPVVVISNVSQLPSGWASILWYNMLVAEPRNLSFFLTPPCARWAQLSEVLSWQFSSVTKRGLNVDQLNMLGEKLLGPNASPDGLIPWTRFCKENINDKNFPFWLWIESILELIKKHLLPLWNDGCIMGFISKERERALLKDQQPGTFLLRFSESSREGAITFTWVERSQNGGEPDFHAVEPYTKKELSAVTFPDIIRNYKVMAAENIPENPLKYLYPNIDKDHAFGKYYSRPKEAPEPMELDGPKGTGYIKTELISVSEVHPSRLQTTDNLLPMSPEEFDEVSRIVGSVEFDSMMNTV
UniProt Q92793: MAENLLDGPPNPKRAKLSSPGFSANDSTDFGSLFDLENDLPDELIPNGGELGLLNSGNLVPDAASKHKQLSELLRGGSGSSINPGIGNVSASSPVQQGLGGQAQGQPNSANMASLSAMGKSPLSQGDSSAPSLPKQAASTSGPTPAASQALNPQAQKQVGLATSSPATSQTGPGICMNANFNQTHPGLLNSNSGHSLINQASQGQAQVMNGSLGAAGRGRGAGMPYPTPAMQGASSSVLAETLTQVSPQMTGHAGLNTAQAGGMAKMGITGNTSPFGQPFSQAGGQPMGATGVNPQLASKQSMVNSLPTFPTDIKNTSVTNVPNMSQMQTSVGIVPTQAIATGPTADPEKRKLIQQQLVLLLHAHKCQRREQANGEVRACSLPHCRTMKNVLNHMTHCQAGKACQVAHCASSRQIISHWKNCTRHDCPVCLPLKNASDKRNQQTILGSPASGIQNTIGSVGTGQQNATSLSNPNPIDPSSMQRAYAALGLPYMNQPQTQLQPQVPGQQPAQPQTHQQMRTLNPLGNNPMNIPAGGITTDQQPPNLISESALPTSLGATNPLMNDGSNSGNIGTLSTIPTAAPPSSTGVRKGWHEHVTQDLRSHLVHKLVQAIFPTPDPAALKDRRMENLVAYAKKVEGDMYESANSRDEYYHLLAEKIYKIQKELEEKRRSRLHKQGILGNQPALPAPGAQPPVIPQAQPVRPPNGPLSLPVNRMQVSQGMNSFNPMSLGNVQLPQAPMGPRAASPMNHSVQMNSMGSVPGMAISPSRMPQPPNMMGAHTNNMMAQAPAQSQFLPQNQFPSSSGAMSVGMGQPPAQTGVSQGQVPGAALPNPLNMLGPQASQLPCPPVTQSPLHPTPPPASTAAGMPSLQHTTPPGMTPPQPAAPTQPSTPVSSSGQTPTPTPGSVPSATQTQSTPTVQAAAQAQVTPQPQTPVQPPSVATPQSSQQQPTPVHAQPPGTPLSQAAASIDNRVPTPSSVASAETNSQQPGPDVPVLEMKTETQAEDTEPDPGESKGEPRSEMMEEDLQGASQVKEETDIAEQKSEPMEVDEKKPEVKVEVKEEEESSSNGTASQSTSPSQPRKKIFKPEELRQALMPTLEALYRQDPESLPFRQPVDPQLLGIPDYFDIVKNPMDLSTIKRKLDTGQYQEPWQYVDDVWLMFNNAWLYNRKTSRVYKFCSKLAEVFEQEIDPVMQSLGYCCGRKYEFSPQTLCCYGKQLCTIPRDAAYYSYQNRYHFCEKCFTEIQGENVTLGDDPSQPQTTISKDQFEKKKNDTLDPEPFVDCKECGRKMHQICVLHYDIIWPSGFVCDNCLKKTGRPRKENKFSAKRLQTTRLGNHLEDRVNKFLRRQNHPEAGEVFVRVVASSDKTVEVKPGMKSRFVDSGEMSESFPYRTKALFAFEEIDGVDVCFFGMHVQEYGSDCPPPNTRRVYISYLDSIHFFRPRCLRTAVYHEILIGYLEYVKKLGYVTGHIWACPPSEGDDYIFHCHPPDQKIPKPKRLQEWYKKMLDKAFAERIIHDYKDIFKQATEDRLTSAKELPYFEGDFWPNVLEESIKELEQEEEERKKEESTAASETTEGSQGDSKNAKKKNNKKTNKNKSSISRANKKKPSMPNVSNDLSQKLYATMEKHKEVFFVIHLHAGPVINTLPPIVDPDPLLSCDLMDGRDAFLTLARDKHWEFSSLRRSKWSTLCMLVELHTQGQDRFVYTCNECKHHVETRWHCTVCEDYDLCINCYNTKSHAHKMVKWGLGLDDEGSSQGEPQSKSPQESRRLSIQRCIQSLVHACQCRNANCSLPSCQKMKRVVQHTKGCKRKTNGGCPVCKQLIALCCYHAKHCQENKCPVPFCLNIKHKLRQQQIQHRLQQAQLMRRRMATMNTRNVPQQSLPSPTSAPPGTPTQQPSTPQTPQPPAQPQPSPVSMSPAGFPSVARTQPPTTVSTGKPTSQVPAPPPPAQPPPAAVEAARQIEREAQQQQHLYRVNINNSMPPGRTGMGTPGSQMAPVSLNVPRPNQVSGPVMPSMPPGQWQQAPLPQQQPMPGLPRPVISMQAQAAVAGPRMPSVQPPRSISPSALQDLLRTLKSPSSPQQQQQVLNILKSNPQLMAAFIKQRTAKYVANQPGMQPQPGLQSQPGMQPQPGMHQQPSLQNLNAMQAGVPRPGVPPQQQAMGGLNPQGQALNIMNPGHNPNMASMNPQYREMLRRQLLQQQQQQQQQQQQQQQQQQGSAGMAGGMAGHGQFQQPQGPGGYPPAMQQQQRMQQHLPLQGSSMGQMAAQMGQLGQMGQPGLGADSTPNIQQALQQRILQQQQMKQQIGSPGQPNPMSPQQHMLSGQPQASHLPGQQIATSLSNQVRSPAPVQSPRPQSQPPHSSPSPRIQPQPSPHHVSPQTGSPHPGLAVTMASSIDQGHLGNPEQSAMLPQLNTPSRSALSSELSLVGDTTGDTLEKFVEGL
UniProt Q09472: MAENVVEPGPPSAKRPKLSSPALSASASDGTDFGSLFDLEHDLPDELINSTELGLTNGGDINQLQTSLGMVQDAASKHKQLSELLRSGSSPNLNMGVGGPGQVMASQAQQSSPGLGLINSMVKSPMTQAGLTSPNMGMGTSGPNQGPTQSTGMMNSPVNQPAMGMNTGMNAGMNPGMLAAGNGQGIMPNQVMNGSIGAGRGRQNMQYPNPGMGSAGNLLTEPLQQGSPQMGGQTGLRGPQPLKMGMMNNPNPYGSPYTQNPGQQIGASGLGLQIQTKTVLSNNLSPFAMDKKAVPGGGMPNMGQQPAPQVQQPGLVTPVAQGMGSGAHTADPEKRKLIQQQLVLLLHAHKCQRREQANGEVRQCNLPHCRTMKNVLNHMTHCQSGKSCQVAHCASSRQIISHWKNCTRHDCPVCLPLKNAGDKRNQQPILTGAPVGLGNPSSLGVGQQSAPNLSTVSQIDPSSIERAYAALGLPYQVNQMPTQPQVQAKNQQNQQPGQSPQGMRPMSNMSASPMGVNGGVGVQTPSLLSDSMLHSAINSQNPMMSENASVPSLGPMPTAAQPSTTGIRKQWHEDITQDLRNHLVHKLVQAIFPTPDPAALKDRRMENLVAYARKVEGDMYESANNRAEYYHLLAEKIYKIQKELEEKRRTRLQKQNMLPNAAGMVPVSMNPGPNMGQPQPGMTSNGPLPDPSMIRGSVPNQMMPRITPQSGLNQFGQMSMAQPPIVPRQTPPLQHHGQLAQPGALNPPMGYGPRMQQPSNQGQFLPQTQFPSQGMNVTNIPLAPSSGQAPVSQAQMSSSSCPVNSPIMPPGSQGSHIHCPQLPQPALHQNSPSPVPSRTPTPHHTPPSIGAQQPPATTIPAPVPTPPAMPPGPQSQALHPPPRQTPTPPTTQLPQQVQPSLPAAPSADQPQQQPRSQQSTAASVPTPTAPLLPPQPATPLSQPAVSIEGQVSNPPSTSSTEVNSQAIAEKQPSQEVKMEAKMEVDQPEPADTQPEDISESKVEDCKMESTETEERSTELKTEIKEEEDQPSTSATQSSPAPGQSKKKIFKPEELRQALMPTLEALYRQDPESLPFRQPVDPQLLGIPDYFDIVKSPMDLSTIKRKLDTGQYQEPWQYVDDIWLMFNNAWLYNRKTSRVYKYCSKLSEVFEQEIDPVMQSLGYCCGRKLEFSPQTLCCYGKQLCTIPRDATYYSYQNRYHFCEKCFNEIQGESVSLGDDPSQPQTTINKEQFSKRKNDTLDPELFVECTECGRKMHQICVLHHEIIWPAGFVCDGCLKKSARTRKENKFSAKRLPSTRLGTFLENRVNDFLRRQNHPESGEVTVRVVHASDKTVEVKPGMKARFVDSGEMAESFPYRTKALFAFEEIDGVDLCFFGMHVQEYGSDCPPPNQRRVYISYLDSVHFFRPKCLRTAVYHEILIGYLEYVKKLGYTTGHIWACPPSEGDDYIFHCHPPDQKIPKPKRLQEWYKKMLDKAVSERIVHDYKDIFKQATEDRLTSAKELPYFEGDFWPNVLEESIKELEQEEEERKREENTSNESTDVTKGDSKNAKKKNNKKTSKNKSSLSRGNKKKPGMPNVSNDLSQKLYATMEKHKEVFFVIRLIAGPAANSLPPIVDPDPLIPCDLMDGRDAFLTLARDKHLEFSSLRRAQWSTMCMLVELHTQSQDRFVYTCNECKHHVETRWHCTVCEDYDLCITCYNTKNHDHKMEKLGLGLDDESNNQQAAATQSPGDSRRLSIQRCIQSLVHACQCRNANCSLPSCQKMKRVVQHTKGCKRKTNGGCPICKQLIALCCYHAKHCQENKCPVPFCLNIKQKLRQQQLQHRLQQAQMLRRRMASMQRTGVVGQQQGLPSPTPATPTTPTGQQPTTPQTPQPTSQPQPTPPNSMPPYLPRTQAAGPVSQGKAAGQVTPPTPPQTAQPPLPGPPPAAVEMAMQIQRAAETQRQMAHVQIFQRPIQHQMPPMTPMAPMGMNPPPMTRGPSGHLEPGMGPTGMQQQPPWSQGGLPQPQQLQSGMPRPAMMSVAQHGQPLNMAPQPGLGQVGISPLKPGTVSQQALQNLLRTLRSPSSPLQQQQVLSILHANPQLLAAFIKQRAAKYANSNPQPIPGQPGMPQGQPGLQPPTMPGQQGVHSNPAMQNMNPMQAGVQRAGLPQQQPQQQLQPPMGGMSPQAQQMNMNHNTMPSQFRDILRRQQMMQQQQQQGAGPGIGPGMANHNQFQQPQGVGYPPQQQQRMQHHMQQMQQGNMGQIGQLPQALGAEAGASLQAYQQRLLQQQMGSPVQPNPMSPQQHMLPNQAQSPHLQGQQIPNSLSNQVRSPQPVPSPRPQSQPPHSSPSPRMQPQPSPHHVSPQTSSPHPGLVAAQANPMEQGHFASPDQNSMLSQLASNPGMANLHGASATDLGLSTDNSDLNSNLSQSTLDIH

Target: STAT1 (total and phosphorylated), HEK293T (human (endogenous in HEK293T)) (UniProt P42224)
Assay: co-IP

Row | Substance | binding
1 | CBP, HEK293T (from UniProt Q92793 1-2442) | binds
2 | p300, HEK293T (from UniProt Q09472 1-2414) | binds
